# In the supplement of paper PMC12889115:
# The other results are listed elsewhere or left out. These are raw signals, not scaled to a control.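 In the initial screen, polymyxin B was used at a concentration that permeabilizes Salmonella's outer membrane but not its inner membrane. Maximum growth was set by DMSO wells with or without polymyxin B. Since plates varied, data were ranked per plate, and compounds giving the lowest OD600 advanced as hits.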
# System: Salmonella enterica serovar Typhimurium SL1344
# Test: bacterial growth OD600 after 18 h with compound and polymyxin B; higher = more bacterial growth (less inhibition)
# Conditions: 50 µM, Mueller-Hinton broth
SMILES,bacterial growth OD600 (polymyxin B 1 µg/mL),bacterial growth OD600 (polymyxin B 0.75 µg/mL)
Cc1ccc(OCCN(C)C(=O)C2CCC(=O)N(Cc3ccccn3)C2)cc1 (stereo unspecified),0.893,–
Cc1nc2sccn2c1CN1CCC2(CC1)CC2C(=O)NCCC(c1ccccc1)c1ccccc1 (stereo unspecified),–,0.902
Cc1c(C(=O)N(C)CC(C)C)cnn1-c1ncc2c(n1)-c1ccccc1CC2,–,0.656
Cc1nc(N(C)C2CCCCC2)ncc1C(C)NC(=O)CN1CCCC1=O (stereo unspecified),–,0.827
COc1ccc(OCc2cc(C(=O)N3CCOCC3)n[nH]2)c(Cl)c1,0.88,–
COCc1noc(-c2ccc(N3CCCCC3CCCO)nc2)n1 (stereo unspecified),–,0.843
CCNC(=O)c1cn(C(C)CC)cc(C(=O)NCc2ccc(F)c(F)c2)c1=O (stereo unspecified),–,0.19
c1ccc(CCCNc2ccc(-c3nc(C4CC4)no3)cn2)nc1,–,0.773
COCc1noc(-c2ccc(N(C)CC3CCCO3)nc2)n1 (stereo unspecified),0.935,–
Cc1ccc(NC2CCCN(C(=O)Cc3nonc3C)C2)cc1C (stereo unspecified),0.778,–
Cc1c(CC(=O)NCCc2ccco2)c2c(n1CC1CCCO1)CCCC2=O (stereo unspecified),–,1.03
COCCO[C@H]1[C@H](NC(=O)C(C)C)c2ccccc2C12CCN(C(=O)Cc1cccc(OC)c1)CC2,–,0.851
C=C(C)CN(CC)C(=O)C1CCC(=O)N(CCc2ccc(OC)cc2)C1 (stereo unspecified),0.931,–
CCn1cc(CNC(=O)C2CCC(=O)N(CCCc3ccccc3)C2)cn1 (stereo unspecified),0.775,–
COCC(=O)N1CCc2[nH]nc(-c3ccc4c(c3)OCO4)c2C1,–,0.868
Cc1nc2sccn2c1C(=O)NC1CCCN(CCc2ccccc2)C1 (stereo unspecified),0.909,–
O=C(C1CCN(c2nc3nonc3nc2NC2CCCC2)CC1)N1CCCC1,0.892,–
C=CCC(=O)N1CCCC1C(=O)Nc1ccc(-c2nc3ccccc3o2)cc1 (stereo unspecified),–,0.881
O=C1CCC(CCC(=O)N2CCOc3ccccc3C2)(Cc2ccc3ccccc3c2)N1 (stereo unspecified),–,0.864
COc1ccc(CC2(CCC(=O)N[C@@H](Cc3ccccc3)C(N)=O)CCC(=O)N2)c(F)c1 (stereo partly specified),–,0.86
CC1(C(=O)NC2CC(=O)N(CCc3ccccc3)C2)CC1 (stereo unspecified),1.09,–

# In the list so far, these contain a halogen:
SMILES,bacterial growth OD600 (polymyxin B 1 µg/mL),bacterial growth OD600 (polymyxin B 0.75 µg/mL)
COc1ccc(OCc2cc(C(=O)N3CCOCC3)n[nH]2)c(Cl)c1,0.88,–
CCNC(=O)c1cn(C(C)CC)cc(C(=O)NCc2ccc(F)c(F)c2)c1=O (stereo unspecified),–,0.19
COc1ccc(CC2(CCC(=O)N[C@@H](Cc3ccccc3)C(N)=O)CCC(=O)N2)c(F)c1 (stereo partly specified),–,0.86
